# The campaign covered roughly 400,000 compounds. About 13,000 (3.2%) were called active. The inconclusive results got no clear call from the source; some entries with a clear call stand among them for comparison. The call rests on the fitted dose curve; in most records, active means well fitted cell-killing curve with a large enough effect; inconclusive means small, poorly fitted or top-dose-only effect, or effect the other way; inactive means flat fitted curve, though single readings scatter. Where the call is inconclusive, the potency comes from a doubtful curve fit.
# Assay: qHTS assay for MDR1-selective chemotherapeutics: Primary screen using the drug-selected MDR subline cells KB-V1; further: nearly all actives have a fitted effect of over 60% in size
# Settings: KB-V1 MDR cells viability, CellTiter-Glo, 72 h; activity change, negative = cytotoxicity: at 46.1 µM (top of the series)
# Outline: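 Readout: CellTiter-Glo luminescence, 10 min after addition. Cells: KB-V1 MDR subline, 72 h at 37 degrees C with compound. Analysis: corrected, normalized data fitted to concentration-effect curves.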
# On the % scale 0 is the no-effect control and ±100 the full control effect; potency means the concentration at half of the fitted maximal effect.
SMILES,Potency,"activity change, negative = cytotoxicity"
CCn1nc(C)c(Br)c1C(=O)Sc1ccccc1Cl,inactive,–
Cc1c(Nc2ncnc3c2cnn3-c2ccccc2)c(=O)n(-c2ccccc2)n1C,"inconclusive: 18.4 µM [cytotoxic, partial curve, poor fit]",–
O=C(Nc1ccc(OC(F)(F)F)cc1)C(NS(=O)(=O)c1cccc2nsnc12)c1ccccc1 (stereo not given),"inconclusive: 25.9 µM [cytotoxic, single point]",–
CCn1c(SCC(=O)Nc2cccnc2Cl)nnc1-c1ccccc1,active: 20.6 µM,–
Cc1cc(C)cc(NC(=O)CCc2nc3sc4c(c3c(=O)[nH]2)CCCC4)c1,"inconclusive: 9.2 µM [cytotoxic, partial curve]",–
O=C1Nc2ccccc2C1(O)Cc1ccccn1 (stereo not given),inactive,–
O=C(O)CCCn1cc(NC(=O)COc2ccccc2F)cn1,"inconclusive: 23.1 µM [rising, single point]",–
O=C(CS(=O)(=O)c1ccc(F)cc1)Nc1nccs1,inactive,–
O=C(N/N=C/c1ccc([N+](=O)[O-])o1)c1cn2ccc3ccccc3c2n1,inactive,–
Cc1cccc(N(C(=O)Cn2nnc(-c3ccccc3F)n2)C(C(=O)NC(C)(C)C)c2ccncc2)c1 (stereo not given),inactive,–
CCCCOC(=O)c1ccc(NC(=O)c2cc(=O)c3ccccc3o2)cc1,"inconclusive: 29.1 µM [rising, single point]",–
Cc1ccc(C)c(N2CCN(C(=O)c3cccn4c(=O)c5ccccc5nc34)CC2)c1,inactive,–
O=C1N/C(=N/O)S/C1=C/c1cccc([N+](=O)[O-])c1,inactive,–
N#Cc1c(NC(=O)CSc2nc3ccccc3s2)sc2c1CCCC2,active: 16.4 µM,–
COc1ccc(-c2cc([C@H]3[C@@H]4C=CCC[C@@]4(C)C(=O)N3Cc3ccccc3)ccc2F)cc1,"inconclusive: 13 µM [cytotoxic, partial curve, poor fit]",–
CCn1nnc(NC(=O)C(C)(c2ccccc2)c2ccccc2)n1,"inconclusive: 18.4 µM [cytotoxic, single point]",–
O=C1CSC2(C(=O)N(Cc3c(F)cccc3Cl)c3ccccc32)N1c1ccc(F)c(F)c1 (stereo not given),"inconclusive: 29.1 µM [cytotoxic, single point]",–
O=C(CCCO)N/N=C/c1cc(Br)ccc1O,"inconclusive: 20.6 µM [cytotoxic, partial curve, poor fit]",–
COc1ccccc1NS(=O)(=O)c1cc(NC(=O)Nc2ccc(Cl)cc2Cl)ccc1N1CCCCC1,active: 10.3 µM,–
O=[N+]([O-])c1ccc(S(=O)(=O)CC(CN2CCOCC2)N2CCOCC2)cc1 (stereo not given),inactive,–
CN(Cc1ccc(Br)s1)C(=O)CNC(=O)c1ccc2c(c1)OCO2,active: 20.6 µM,–
CCOC(=O)[C@]12CCCC=C1N(Cc1ccco1)C(=O)[C@H](CC(=O)NCCCOC)C2,inactive,–
CCOc1ccc(Cc2c(Cl)nc(SC)nc2N(C)C)cc1,active: 11.6 µM,–
O=C(NCCN1CCOCC1)c1cc(-c2cccs2)nc2ccccc12,"inconclusive: 18.4 µM [cytotoxic, partial curve]",–

# Entries above that have a thiophene ring, fused or not, in the order listed:
SMILES,Potency,"activity change, negative = cytotoxicity"
Cc1cc(C)cc(NC(=O)CCc2nc3sc4c(c3c(=O)[nH]2)CCCC4)c1,"inconclusive: 9.2 µM [cytotoxic, partial curve]",–
N#Cc1c(NC(=O)CSc2nc3ccccc3s2)sc2c1CCCC2,active: 16.4 µM,–
CN(Cc1ccc(Br)s1)C(=O)CNC(=O)c1ccc2c(c1)OCO2,active: 20.6 µM,–
O=C(NCCN1CCOCC1)c1cc(-c2cccs2)nc2ccccc12,"inconclusive: 18.4 µM [cytotoxic, partial curve]",–

# The list goes on.

SMILES,Potency,"activity change, negative = cytotoxicity"
O=C1CC(Cc2ccccc2)C(=O)N1c1ccc(Cl)cn1 (stereo not given),"inconclusive: 18.4 µM [rising, single point]",–
COCc1cc(C)nc(OCC(=O)N/N=C/c2ccc(-c3cc([N+](=O)[O-])ccc3Cl)o2)c1C#N,inactive,–
O=C(Cc1cccs1)Nc1ccc(N2CCOCC2)cc1,"inconclusive: 29.1 µM [rising, single point]",–
Cc1cc(C)c2nc(C(F)(F)F)nc(N3CCN(C(=O)c4ccco4)CC3)c2c1,active: 11.6 µM,–
COc1ccc(C(=O)NC2CCCc3ccccc32)cc1S(=O)(=O)N1CCOCC1 (stereo not given),"inconclusive: 16.4 µM [cytotoxic, partial curve, poor fit]",–
CC1=C/C(=N\OS(=O)(=O)c2ccccc2)C=CC1=O,"inconclusive: 31.6 µM [cytotoxic, single point]",–
COc1ccccc1CNC(=O)C12CC3CC(CC(C3)C1)C2,"inconclusive: 4.11 µM [cytotoxic, partial curve]",–
CCc1noc(C)c1C(=O)N1CCN(S(=O)(=O)c2c(C)c(C)cc(C)c2C)CC1,active: 10.3 µM,–
COCCn1c(SCc2ccc(Cl)cc2)nc2c1c(=O)[nH]c(=O)n2C,"inconclusive: 14.6 µM [cytotoxic, partial curve, poor fit]",–
CC1CN(Cc2c(O)ccc3c2oc(=O)c2ccccc23)CC(C)O1 (stereo not given),"inconclusive: 4.11 µM [cytotoxic, partial curve]",–
O=C(NCc1cccnc1)c1cc(C2CCCCN2S(=O)(=O)Cc2ccccc2)on1 (stereo not given),"inconclusive: 18.4 µM [cytotoxic, partial curve, poor fit]",–
Cc1cccc(CSc2ccc3nnc(CCNS(=O)(=O)c4ccccc4)n3n2)c1,inactive,–
CCNc1nc(SC(C)C(=O)OC)nc(N(C)C)n1 (stereo not given),inactive,–
COCCCNC(=O)C1CCN(C(=O)c2cc3sccc3n2Cc2ccc(Cl)cc2)CC1,"inconclusive: 7.31 µM [cytotoxic, partial curve]",–
COc1c(C)cc(C(O)c2ncc(-c3ccc4ccccc4c3)[nH]2)cc1C (stereo not given),inactive,–
CCOc1ncccc1C(=O)Nc1ccc2c(c1)OCCCO2,"inconclusive: 16.4 µM [cytotoxic, partial curve]",–
CC1=C(C(=O)Nc2ccccc2)C(c2ccco2)C(C#N)=C(SCC(=O)OC(C)C)N1 (stereo not given),"inconclusive: 5.17 µM [cytotoxic, partial curve]",–
Cc1occc1C(=O)N/N=C/C1=C(N2CCOCC2)C(=C\c2ccc(Cl)cc2Cl)/CC1,"inconclusive: 3.66 µM [rising, full curve, poor fit]",–
CC1CCCN(C(=O)c2ccc3c(c2NCCO)C(=O)c2ccccc2C3=O)C1 (stereo not given),active: 4.61 µM,–
COCCN1CCn2c(nc3cc(NC(=O)NC4CCCCC4)ccc32)C1,"inconclusive: 23.1 µM [rising, single point]",–
COc1ccc2nc3cc(Cl)ccc3c(Nc3cc(C(C)C)c(O)cc3C)c2c1,"inconclusive: 29.1 µM [cytotoxic, single point]",–
CCN1CCN(C(=O)c2ccc3c(c2)N(Cc2ccc(Cl)cc2)C(=O)c2ccccc2S3=O)CC1 (stereo not given),inactive,–
COC(=O)c1c(C)[nH]c(C(=O)COC(=O)Cn2cc(C(F)(F)F)ccc2=O)c1C,"inconclusive: 7.31 µM [cytotoxic, partial curve]",–
COc1ccc([N+](=O)[O-])cc1N(CC(O)CN1CCCCC1)S(=O)(=O)c1ccccc1 (stereo not given),"inconclusive: 25.9 µM [rising, single point]",–

SMILES,Potency,"activity change, negative = cytotoxicity"
Cn1c(=O)c2cc(NC(=O)Cc3cccc4ccccc34)ccc2n1-c1ccccc1,"inconclusive: 29.1 µM [cytotoxic, single point]",–
COc1cccc(Cn2c(=O)n(CC3CCC(C(=O)N4CCOCC4)CC3)c(=O)c3sccc32)c1 (stereo not given),inactive,–
S=C(NCCc1ccccc1)Nc1ccc(Br)cn1,"inconclusive: 23.1 µM [cytotoxic, single point]",–
CN1CCN(S(=O)(=O)c2cccc(C(=O)NCCOc3ccccc3F)c2)CC1,"inconclusive: 20.6 µM [cytotoxic, single point]",–
Cc1ccccc1-n1nnnc1SCCCC(=O)c1ccc(F)cc1,active: 6.51 µM,–
COc1cccc(C(=O)/C=C/c2ccc(OCC#N)c(OC)c2)c1,"inconclusive: 25.9 µM [cytotoxic, single point]",–
CCCCNC(=O)C(NC(=O)c1ccc(C(F)(F)F)cc1)C(=O)c1ccccc1 (stereo not given),"inconclusive: 8.2 µM [cytotoxic, partial curve]",–
COc1ccc(-c2nnc(SCC(=O)NCCc3ccccc3)nc2-c2ccc(OC)cc2)cc1,"inconclusive: 0.366 µM [rising, full curve, poor fit]",–
CC(NS(=O)(=O)c1ccccc1)C(=O)Nc1nccs1 (stereo not given),inactive,–
O=c1[nH]c(O)c(N=Nc2ccc(Cl)c(S(=O)(=O)Nc3ccccc3Cl)c2)c(=O)[nH]1,"inconclusive: 14.6 µM [rising, partial curve, poor fit]",–
CC[C@H](C)[C@@H](C(=O)N1CCNCC1)n1cc([C@@H](N)CO)nn1,inactive,–
Cn1c(CN2CCN(S(C)(=O)=O)CC2)nc2cc([N+](=O)[O-])ccc21,inactive,–
CC(C)(C)NC(=O)COC(=O)c1ccc(NC(=O)CC#N)cc1,–,inconclusive: 4.03%
CCOC(=O)c1ccc[n+]([O-])c1,"inconclusive: 29.1 µM [rising, single point]",–
O=C1CC2(CCN(S(=O)(=O)c3ccccc3)CC2)Oc2ccccc21,"inconclusive: 11.6 µM [cytotoxic, partial curve]",–
Cc1ccc(C(=O)CSc2nnc(-c3ccccc3)n2-c2ccccc2)o1,"inconclusive: 0.282 µM [cytotoxic, full curve]",–
COc1ccc(Cl)cc1NC(=O)CN(C)CC(=O)NCc1ccc(F)cc1,"inconclusive: 9.2 µM [cytotoxic, partial curve]",–
COc1ccccc1N1C(=O)C2CCC(c3ccccc3)CC2C1=O (stereo not given),"inconclusive: 20.6 µM [cytotoxic, partial curve, poor fit]",–
Cc1cc(S(=O)(=O)N2CCCCC2CCNC(=O)C(=O)NCC2CCCO2)ccc1F (stereo not given),active: 2.59 µM,–
O=C(Cc1ccc(NC(=O)N2CCCCc3ccccc32)cc1)Nc1ccccc1Br,"inconclusive: 14.6 µM [cytotoxic, partial curve, poor fit]",–
CCCCN(C(=O)c1cccc(-n2cnnn2)c1)c1c(N)n(CCCC)c(=O)[nH]c1=O,inactive,–
O=C(NCc1ccccc1)C1=C[C@H](c2ccc(Br)cc2)C[C@H](OCCCCO)O1,–,inconclusive: 12.2%

# Complete entries from above:
# `Cc1cc(S(=O)(=O)N2CCCCC2CCNC(=O)C(=O)NCC2CCCO2)ccc1F` (stereo not given) is listed with Potency: active: 2.59 µM
# `CC[C@H](C)[C@@H](C(=O)N1CCNCC1)n1cc([C@@H](N)CO)nn1` is listed with Potency: inactive
